Measurements reported in patent US20110212162A1 (SANFORD BURNHAM MEDICAL RESEARCH INSTITUTE, published 2011).
These are yes or no findings as the source states them, for the method shown. Some binding calls cover weakened binding; strength is not graded here.

Sequences of proteins named here, by UniProt entry; tags and fusion partners are left off.
UniProt P61073: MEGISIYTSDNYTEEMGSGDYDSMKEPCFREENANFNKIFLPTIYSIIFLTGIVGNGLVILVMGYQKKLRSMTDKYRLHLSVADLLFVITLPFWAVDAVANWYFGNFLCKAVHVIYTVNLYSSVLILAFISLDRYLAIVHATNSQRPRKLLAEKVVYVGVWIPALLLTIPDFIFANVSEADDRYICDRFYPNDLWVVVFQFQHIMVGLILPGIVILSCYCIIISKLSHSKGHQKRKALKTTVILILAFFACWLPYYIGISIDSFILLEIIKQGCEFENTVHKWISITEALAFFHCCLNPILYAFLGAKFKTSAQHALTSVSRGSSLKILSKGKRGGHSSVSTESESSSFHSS

B1: LSD phage (T7 phage displaying the peptide …, SEQ ID NO:4) (peptide)
peptide: CLSDGKRKC
B2: LSD peptide (…, SEQ ID NO:4), synthetic (peptide)
peptide: CLSDGKRKC

How the values were obtained:
[1] = biological target: chemokine receptor CXCR4, expressed on transfected 293T cells (UniProt P61073); assay: phage binding to CXCR4-transfected 293T cells; bound phage rescued and titrated
[2] = biological target: chemokine receptor CXCR4, expressed on transfected 293T cells (UniProt P61073); assay: competitive phage binding assay on CXCR4-transfected 293T cells; free peptide against LSD phage; binding of the free peptide is inferred from the inhibition

Binder	binding [1]	binding [2]
B1	binds	–
B2	–	binds
